The target in the assay is T1, FM-CATH (F. multistriata).
T1 sequence (peptide): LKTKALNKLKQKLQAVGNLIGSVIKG
Kind of assay: SPR; SPRi (PlexArray HT A100, bare gold chip); FM-CATH (2 mM) and BSA in PBS spotted on the chip, blocked with 1 M ethanolamine pH 8.5; different concentrations of proteases flowed over at 2 uL/s; regeneration with 0.5% H3PO4; both purified. Background: SPR reads the build-up and loss of mass on a sensor chip optically.

No constants are given. Whether binding was seen depends on the method and setting. Binding calls can cover weak binding; strength is not graded here.

These results are taken from article PMC8415707 (Frontiers in Pharmacology, 2021).

As to plasmin (enzyme), the binding entry was “binds”.
Consider tPA (enzyme), for which the binding result is “binds”.
In the case of thrombin (enzyme), the binding result is “binds”.
